The other results are listed elsewhere or left out. Shown are side measurements of this screen, not its main read-out; they come without a call. Most of these compounds were active or inconclusive in the main read-out, so they are no random draw. Words in brackets tell the shape of the fitted curve; partial curves, single points and poor fits give uncertain potencies.
Assay: qHTS Assay for Lipid Storage Modulators in Drosophila S3 Cells;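 for cell number change: cells counted by Cell Tracker Red CMTPX staining in the red channel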
Details: BODIPY lipid droplet fluorescence, 18-24 h; for cell number change: measured here: cell count max response, cells fed with added oleic acid
How it was run: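 Drosophila S3 cells loaded with oleic acid (400 uM, as added) and compounds at several concentrations; lipid droplets imaged by 488-nm laser-scanning cytometry, 500–530 nm intensity and object ratio to cell channel. Percent activity normalized to 20 uM Triacsin C.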

[1] = measured here: cell number channel AC50, cells fed with added oleic acid
[2] = measured here: lipid fluorescence (Fed channel) AC50, cells fed with added oleic acid

| Structure (SMILES) | cell number change | AC50 [1] | AC50 [2] |
| --- | --- | --- | --- |
| N#C/C(=C\c1ccccc1Cl)C(=O)NC(=O)Oc1ccccc1 | 4.89% | 651 nM [falling, single point] |  |
| O=C(O)CCCNS(=O)(=O)c1ccccc1 | -1.29% |  | 164 nM [falling, full curve, poor fit] |
| O=C(O)[C@H](Cc1ccccc1)N1C(=O)c2ccncc2C1=O | 15.9% |  | 1160 nM [rising, full curve, poor fit] |
| COc1ccccc1N(CC(O)CN(c1ccccc1)S(C)(=O)=O)S(=O)(=O)c1ccccc1 (stereo not given) | 2.5% |  | 411 nM [falling, partial curve, poor fit] |
| CC(=O)c1cccc(OCc2cc(C(=O)NC3CCN(Cc4ccccc4)CC3)no2)c1 |  |  | 6510 nM [rising, single point] |
| CC(=O)c1cc2c(cc1NC(=O)CSc1nc3ccccc3o1)OCO2 | -18.4% |  | 2310 nM [rising, partial curve, poor fit] |
| COc1ccc(NC(=S)Nc2cccc(Cl)c2)cc1OC |  |  | 517 nM [rising, single point] |
| Cc1cc(OCC(=O)NNC(=O)CCc2ccccc2)ccc1Br | 15.8% |  |  |
| CN1CCC(NC(=O)c2cccs2)CC1 | 10.8% | 82 nM [falling, full curve, poor fit] | 23100 nM [falling, partial curve, poor fit] |
| CC1CN(C(=O)c2cc(-c3ccc(Cl)s3)nc3ccccc23)CC(C)O1 (stereo not given) |  |  | 580 nM [falling, single point] |
| Cc1ccc(NC(=S)N2CCN(C)CC2)c(C)c1 |  | 651 nM [rising, partial curve, poor fit] | 1840 nM [rising, partial curve] |
| CC(Oc1cc(Cl)ccc1Cl)C(=O)N/N=C\c1ccnn1C (stereo not given) | 32.3% | 2590 nM [rising, partial curve] |  |
| N#CCN1C(=O)C2CCCN2c2ccc(S(=O)(=O)N3CCOCC3)cc21 (stereo not given) | -5.25% |  |  |
| COc1ccc(Br)cc1CNC(=O)Cc1c(C(=O)O)[nH]c2ccc(Cl)cc12 | -32.9% | 29100 nM [falling, single point] |  |
| CCc1ccc(C(=O)COC(=O)c2cccnc2Cl)cc1 | 54.2% | 29100 nM [rising, single point] |  |
| COc1cc(NC(=O)CSc2ccc3c(c2)OCCO3)cc(OC)c1OC | -26.5% |  |  |
| Cc1nn(CCCC(=O)NCCc2ccc(Cl)cc2)c(=O)c2nn(-c3ccccc3)c(C)c12 | -7.79% |  |  |
| COc1ccc(NC2CC(=O)NC2=O)cc1 (stereo not given) | 4.02% | 651 nM [rising, full curve, poor fit] |  |

Rewritten bar-delimited: two of the compounds above
Structure (SMILES) | cell number change | AC50 [1] | AC50 [2]
COc1ccc(NC(=S)Nc2cccc(Cl)c2)cc1OC |  |  | 517 nM [rising, single point]
COc1cc(NC(=O)CSc2ccc3c(c2)OCCO3)cc(OC)c1OC | -26.5% |  | 
